The assay deals with mammalian Diaphanous1 (mDia1), endogenous (mouse (endogenous in C2C12)) (UniProt O08808). Nature of the assay: affinity purification with mass spectrometry; IP of endogenous mDia1 from C2C12 myoblasts (GM) and myotubes (DM 72 h), LC-MS/MS; LFQ ratio against IgG of 2 or greater in three biological replicates.

The chains behind the UniProt entries cited, without tags or fusion partners.
UniProt O08808: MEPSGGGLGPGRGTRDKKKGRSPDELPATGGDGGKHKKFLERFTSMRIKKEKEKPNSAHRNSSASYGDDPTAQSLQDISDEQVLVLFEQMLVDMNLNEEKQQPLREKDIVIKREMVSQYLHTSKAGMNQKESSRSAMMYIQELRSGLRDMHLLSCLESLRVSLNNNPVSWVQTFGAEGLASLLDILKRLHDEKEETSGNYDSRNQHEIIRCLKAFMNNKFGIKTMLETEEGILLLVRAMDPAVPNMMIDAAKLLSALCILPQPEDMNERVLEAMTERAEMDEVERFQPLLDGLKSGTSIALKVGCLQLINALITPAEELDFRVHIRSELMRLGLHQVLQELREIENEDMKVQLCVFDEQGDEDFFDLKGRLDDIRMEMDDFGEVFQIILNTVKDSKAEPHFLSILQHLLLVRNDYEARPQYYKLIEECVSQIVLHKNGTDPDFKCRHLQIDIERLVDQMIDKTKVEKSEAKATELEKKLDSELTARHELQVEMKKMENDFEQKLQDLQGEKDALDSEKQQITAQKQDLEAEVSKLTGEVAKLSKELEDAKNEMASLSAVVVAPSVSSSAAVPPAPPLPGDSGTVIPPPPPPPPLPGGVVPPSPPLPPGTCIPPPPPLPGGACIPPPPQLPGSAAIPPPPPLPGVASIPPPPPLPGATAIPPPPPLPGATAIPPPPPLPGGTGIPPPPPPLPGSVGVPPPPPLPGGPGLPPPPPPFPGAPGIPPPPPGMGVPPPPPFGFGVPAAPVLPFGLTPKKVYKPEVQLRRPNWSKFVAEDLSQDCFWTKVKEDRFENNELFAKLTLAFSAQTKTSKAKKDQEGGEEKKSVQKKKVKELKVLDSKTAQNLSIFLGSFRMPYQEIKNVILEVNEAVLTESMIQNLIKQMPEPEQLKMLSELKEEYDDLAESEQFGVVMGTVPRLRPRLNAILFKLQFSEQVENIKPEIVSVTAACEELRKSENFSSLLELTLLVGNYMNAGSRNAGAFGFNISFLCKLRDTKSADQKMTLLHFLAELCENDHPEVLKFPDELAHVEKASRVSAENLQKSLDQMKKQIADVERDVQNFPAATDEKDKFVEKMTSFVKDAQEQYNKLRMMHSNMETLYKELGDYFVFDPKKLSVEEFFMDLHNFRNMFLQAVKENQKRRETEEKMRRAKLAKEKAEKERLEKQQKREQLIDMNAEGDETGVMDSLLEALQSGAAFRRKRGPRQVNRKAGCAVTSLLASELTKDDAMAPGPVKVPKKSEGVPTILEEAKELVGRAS
UniProt O35129: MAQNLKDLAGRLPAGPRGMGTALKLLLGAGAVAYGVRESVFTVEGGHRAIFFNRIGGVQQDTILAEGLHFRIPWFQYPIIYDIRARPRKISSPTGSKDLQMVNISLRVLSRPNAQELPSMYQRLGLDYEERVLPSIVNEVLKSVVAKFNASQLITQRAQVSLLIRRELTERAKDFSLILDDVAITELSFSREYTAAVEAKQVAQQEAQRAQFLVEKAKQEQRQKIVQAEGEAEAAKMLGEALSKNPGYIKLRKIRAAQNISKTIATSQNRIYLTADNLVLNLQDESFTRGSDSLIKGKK
UniProt P18760: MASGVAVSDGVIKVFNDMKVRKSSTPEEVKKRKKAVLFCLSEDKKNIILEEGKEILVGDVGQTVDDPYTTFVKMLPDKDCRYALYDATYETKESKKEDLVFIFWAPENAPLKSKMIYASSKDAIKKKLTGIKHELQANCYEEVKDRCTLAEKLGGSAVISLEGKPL

From paper PMC6549159 come the findings set out here.

No constants are given. Whether binding was seen depends on the method and setting. Binding seen in cells or lysates may run through a third protein. These calls come from enrichment with a bait or labelling near it, and not all partners need be listed.

As to “Prohibitin2 (Phb2), endogenous (from UniProt O35129 1-299)”, the binding result is “binds”.

Consider “cofilin1, endogenous (from UniProt P18760 1-166)”, for which the binding entry was “binds”.
